PubChem BioAssay AID1918955 (Molecular Pharmacology Branch, DTP, NCI, 2023)
Where “and” joins values, the source holds several entries; their conditions need not be identical. Equal entries are not always repeated. This continues a long series; more values of the same kind are listed elsewhere.

Test system: NCI/ADR-RES complex spheroid viability
Experiment: Anticancer human tumor NCI/ADR-RES cell line growth inhibition;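 note: spheroids exposed to compounds for 7 days; 100% = DMSO vehicle treated spheroids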
Details: active compounds read low
Source text: Multicellular complex tumor spheroid response to LSD1 Inhibitor Iadademstat in combination with a variety of drugs and investigational agents in selected tumor cell lines
The current study was undertaken to assess response to LSD1 inhibitors in combination with standard-of-care drugs and investigational agents in solid tumor complex spheroid models as well as in the K-562 leukemia. Complex spheroids include a stromal component modeled by human endothelial cells (HUVEC) and fibroblasts modeled by human mesenchymal stem cells (MSCs). The concentration ranges selected for each drug and investigational agent were based upon clinically achievable concentrations if the clinical Cmax of the agent was known.
Compounds. The drugs and investigational agents used in this study are listed on Table 1. All of the agents used, including staurosporine (NSC755774) and gemcitabine (NSC613327), were obtained from the Developmental Therapeutics Program, NCI. FDA-approved anticancer drugs are available from the NCI at http://dtp.nci.nih.gov/branches/dscb/oncology_drugset_explanation.html. Drugs and investigational agents were >95% pure by proton nuclear magnetic resonance (NMR) and liquid chromatography/mass spectrometry (LC/MS). Stock solutions were prepared at 400x in DMSO, stored at -70 degrees C, and diluted in fresh medium prior to their use. The final concentration of DMSO in cell culture wells never exceeded 0.25% (v/v). The FDA-approved anticancer drug set is available from the Developmental Therapeutics Program at https://dtp.cancer.gov/organization/dscb/obtaining/available_plates.htm. All drugs and investigational agents were tested over a range starting from a high concentration at or near the clinical Cmax and decreasing in half-log increments. If the clinical Cmax for an agent had not been determined, the highest concentration tested was 10 microM.
Cell Lines. […]

Question: Which viability, T/C (compound 0.316 µM) does the source give for `NC1CCC(NC2CC2c2ccccc2)CC1` (stereo not drawn) here?
Answer: The viability, T/C was 103% [middle of 22 runs].

Question: What about the viability, T/C (compound 10 µM) of the same compound?
Answer: The viability, T/C was 88.7% and 104%.

Question: `NC1CC1c1ccc(-c2cccc(O)c2)cc1` (stereo not drawn) was tested. Which viability, T/C (compound 0.1 µM) did it give?
Answer: Its viability, T/C is 102% [middle of 21 runs].
